Data published in patent US20090175872A1, “Treatment of Conditions Involving Demyelination” (BIOGEN Idec MA Inc., priority 2005, published 2009).
These are yes or no findings as the source states them, for the method shown. Binding seen in cells or lysates may run through a third protein. Some results given as binding are weak or reduced against the parent protein; the word gives no strength.

By UniProt entry, the sequences of proteins in these tests, tags left out. Where a name states a change or a piece, a line headed by the entry shows the natural chain unless it says otherwise. Chains listed by the source or under a name are the forms on record and can include a tag or linker. Residues count along the entry.
UniProt P06494, residues 23-1257: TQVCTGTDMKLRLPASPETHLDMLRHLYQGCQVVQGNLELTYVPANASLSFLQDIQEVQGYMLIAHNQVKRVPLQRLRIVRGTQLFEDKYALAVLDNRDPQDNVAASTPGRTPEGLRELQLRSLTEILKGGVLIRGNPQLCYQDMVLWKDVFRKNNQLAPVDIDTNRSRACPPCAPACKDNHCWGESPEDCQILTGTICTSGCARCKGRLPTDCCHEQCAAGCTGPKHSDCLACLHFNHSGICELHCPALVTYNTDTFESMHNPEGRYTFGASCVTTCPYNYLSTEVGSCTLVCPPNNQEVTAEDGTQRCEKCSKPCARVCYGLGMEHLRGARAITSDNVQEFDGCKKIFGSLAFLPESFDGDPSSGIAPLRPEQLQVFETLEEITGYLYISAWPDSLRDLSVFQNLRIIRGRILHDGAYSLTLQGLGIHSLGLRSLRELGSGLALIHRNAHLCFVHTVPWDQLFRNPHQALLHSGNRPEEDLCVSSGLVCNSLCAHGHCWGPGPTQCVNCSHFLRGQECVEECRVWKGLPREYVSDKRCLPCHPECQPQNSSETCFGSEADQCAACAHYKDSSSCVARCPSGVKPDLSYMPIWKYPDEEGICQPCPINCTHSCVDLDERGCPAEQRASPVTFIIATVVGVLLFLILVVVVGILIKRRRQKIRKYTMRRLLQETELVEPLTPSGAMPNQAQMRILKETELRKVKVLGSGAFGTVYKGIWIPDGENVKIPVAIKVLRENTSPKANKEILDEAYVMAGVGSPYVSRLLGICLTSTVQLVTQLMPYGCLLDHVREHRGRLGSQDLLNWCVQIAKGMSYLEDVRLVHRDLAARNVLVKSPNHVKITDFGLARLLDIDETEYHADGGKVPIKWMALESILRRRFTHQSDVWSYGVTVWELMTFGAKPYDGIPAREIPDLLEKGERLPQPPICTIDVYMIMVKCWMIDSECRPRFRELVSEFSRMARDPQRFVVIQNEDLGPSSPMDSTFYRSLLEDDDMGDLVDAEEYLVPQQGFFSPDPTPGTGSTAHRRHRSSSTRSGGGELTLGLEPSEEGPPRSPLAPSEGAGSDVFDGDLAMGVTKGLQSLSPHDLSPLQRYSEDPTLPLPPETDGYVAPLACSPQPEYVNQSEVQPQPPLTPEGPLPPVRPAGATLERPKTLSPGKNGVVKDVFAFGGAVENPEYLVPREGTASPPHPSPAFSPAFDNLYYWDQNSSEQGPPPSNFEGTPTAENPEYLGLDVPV
rat Sp35 (endogenous, oligodendrocytes, cortex and spinal cord tissue) (A0A8I5ZPI2, form named): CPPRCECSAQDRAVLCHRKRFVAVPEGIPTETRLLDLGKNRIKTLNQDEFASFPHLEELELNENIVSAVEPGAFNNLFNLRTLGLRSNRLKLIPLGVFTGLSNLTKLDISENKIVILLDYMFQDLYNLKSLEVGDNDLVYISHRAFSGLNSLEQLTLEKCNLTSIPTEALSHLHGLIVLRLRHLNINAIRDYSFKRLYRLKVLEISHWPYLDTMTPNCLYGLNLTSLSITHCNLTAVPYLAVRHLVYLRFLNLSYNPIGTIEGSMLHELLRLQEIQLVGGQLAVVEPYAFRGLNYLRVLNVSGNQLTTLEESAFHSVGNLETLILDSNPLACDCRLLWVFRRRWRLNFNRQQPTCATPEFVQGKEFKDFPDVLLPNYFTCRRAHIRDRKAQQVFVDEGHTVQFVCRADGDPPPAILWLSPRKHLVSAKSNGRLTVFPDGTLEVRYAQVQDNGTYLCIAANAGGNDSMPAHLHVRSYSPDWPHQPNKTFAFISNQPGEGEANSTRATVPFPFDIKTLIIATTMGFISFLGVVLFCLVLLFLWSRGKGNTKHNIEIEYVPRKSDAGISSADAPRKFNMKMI

Legend:
[1] = target: rat ErbB2 (endogenous, oligodendrocytes and spinal cord tissue) (rat) (UniProt P06494); assay: co-immunoprecipitation from oligodendrocyte lysates
[2] = target: rat ErbB2 (endogenous, oligodendrocytes and spinal cord tissue) (rat) (UniProt P06494); assay: co-immunoprecipitation from lysates of O4+ oligodendrocytes and spinal cord tissue

## rat Sp35 (endogenous, oligodendrocytes, cortex and spinal cord tissue) (from UniProt A0A8I5ZPI2 36-614) (receptor)
[1]
  binding: binds
[2]
  binding: binds
